Experiment [1] relates to mIMCD3. As to the kind of experiment: robust z score of cell number vs plate controls; higher = more cells (less cytotoxic). As to conditions: 10 µM, 48 h.
Experiment [2] deals with mIMCD3. The experiment can be described thus: robust z score of cilia incidence (% cells with single cilium) vs plate controls; higher = more ciliated cells. As to conditions: 10 µM; 48 h; siRNA: siScr.
Experiment [3] concerns mIMCD3. The experiment can be described thus: robust z score of cilia incidence (% cells with single cilium) vs plate controls; higher = more ciliated cells (rescue of cilia loss). The conditions noted are these: 10 µM; 48 h; siRNA: siRpgrip1l.

Counter-ions that a name gives are not always drawn. ± gives the standard deviation of the averaged measurements. The list shows a part of the results. Baselines shift from plate to plate; read single values as rough.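 The cells are a mouse kidney inner medullary collecting duct line, silenced either for the ciliary gene Rpgrip1l or with a non-targeting control siRNA.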

As for `C[N+](C)(C)CCCCCNCC12CC3CC(CC(C3)C1)C2`, the “robust z score of cell number” value in the experiment on mIMCD3 [1] (siRNA: siRpgrip1l) was -16.8 ± 20; in the experiment on mIMCD3 [1] (siRNA: siScr), -3.24 ± 3.9. The “robust z score of cilia incidence” value in the experiment on mIMCD3 [2] is 2.75 ± 0.7; in the experiment with mIMCD3 [3], -110 ± 120.
For the molecule `O=C1CN(/N=C/c2ccc(-c3ccc([N+](=O)[O-])cc3)o2)C(=O)N1` [Dantrolene, sodium salt], the entries for the “robust z score of cell number” value in the experiment on mIMCD3 [1] (siRNA: siRpgrip1l) and in the experiment on mIMCD3 [1] (siRNA: siScr) were -15.7 ± 15 and -7.78 ± 1.8, respectively. Further, the results for the “robust z score of cilia incidence” value with mIMCD3 [2] and in the experiment with mIMCD3 [3] were 1.89 ± 1 and -10.5 ± 0.92, respectively.
As for `CN(CCOc1ccc(C[C@H](Nc2ccccc2C(=O)c2ccccc2)C(=O)O)cc1)c1ccccn1`, the “robust z score of cell number” value with mIMCD3 [1] (siRNA: siRpgrip1l) was -65.3 ± 62; in the experiment with mIMCD3 [1] (siRNA: siScr) it was -24.1 ± 5.1. Moreover, the entries for the “robust z score of cilia incidence” value in the experiment with mIMCD3 [2] and in the experiment on mIMCD3 [3] were -24.3 ± 8.1 and -392 ± 240, respectively.
Regarding `O=C(Nc1cc(C(F)(F)F)cc(C(F)(F)F)c1)c1cc(Cl)ccc1O`, the “robust z score of cell number” value in the experiment with mIMCD3 [1] (siRNA: siRpgrip1l) is -32.2 ± 10; in the experiment on mIMCD3 [1] (siRNA: siScr), -142 ± 110. In addition, the “robust z score of cilia incidence” value is -67.1 ± 14 in the experiment on mIMCD3 [2] and -56 ± 7.3 in the experiment with mIMCD3 [3].
For `O=C(O)Cc1ccc(OCCNC[C@H](O)c2ccccc2)cc1` [ZD 2079 hydrochloride] the same measures were -0.642 ± 0.053, -2.15 ± 5.2, 0.365 ± 1.6 and -10.3 ± 1.
For `CC(=O)N(OCc1ccccc1)[C@H]1c2cc(C#N)ccc2OC(C)(C)[C@H]1O`, the figures for the “robust z score of cell number” value in the experiment on mIMCD3 [1] (siRNA: siRpgrip1l) and with mIMCD3 [1] (siRNA: siScr) were -18.4 ± 21 and -1.05 ± 4.1, respectively. Further, the “robust z score of cilia incidence” value in the experiment with mIMCD3 [2] is -0.766 ± 0.75; with mIMCD3 [3], -5.64 ± 1.9.
In the same order, the values of `CN(C)c1ccc(/C=C2/C(=O)Nc3ccccc32)cc1` are -76.7 ± 90, -10.8 ± 6.7, -2.26 ± 0.48 and -242 ± 180.
For `CC(C)NCC(O)COc1ccc(CC(N)=O)cc1` (racemic) [(RS)-Atenolol] the same measures were 1.83 ± 4, -6.02 ± 1.6, 1.01 ± 0.38 and -9.54 ± 6.
For the molecule `CC(C)[N+]1(C)[C@@H]2CC[C@H]1C[C@@H](OC(=O)C(CO)c1ccccc1)C2` (some centres not stated) [Ipratropium bromide], the “robust z score of cell number” value was 0.11 ± 1.2 with mIMCD3 [1] (siRNA: siRpgrip1l) and -2.13 ± 0.93 in the experiment on mIMCD3 [1] (siRNA: siScr). Also, the “robust z score of cilia incidence” value in the experiment with mIMCD3 [2] is -1.23 ± 4.3; with mIMCD3 [3] it was -7.39 ± 0.68.
For `C[C@@H]1C[C@H]2[C@@H]3CCC4=CC(=O)C=C[C@]4(C)[C@@]3(F)[C@@H](O)C[C@]2(C)[C@@]1(O)C(=O)CO` [Dexamethasone] the same measures were -30.4 ± 28, -4.45 ± 2.2, -1.85 ± 2.5 and -18.1 ± 0.3.
For `CC#CCOC(=O)c1c(C)nc2sc3c(c2c1N)CCC(O)C3` (configuration not stated) the same measures were -139 ± 150, -32.5 ± 5.6, -20 ± 6.8 and -410 ± 250.
In the same order, the values of `CCOC(=O)c1ncn2c1CN(C)C(=O)c1cc(F)ccc1-2` [Flumazenil] are -20.6 ± 30, -3.454 ± 0.024, 0.138 ± 1.9 and -6.53 ± 0.33.
Turning to `CC1(C)C[C@@H]1C(=O)N/C(=C\CCCCSC[C@H](N)C(=O)O)C(=O)O` [Cilastatin sodium], the entries for the “robust z score of cell number” value with mIMCD3 [1] (siRNA: siRpgrip1l) and in the experiment on mIMCD3 [1] (siRNA: siScr) were -7.57 ± 4.7 and 0.97 ± 2.1, respectively. The “robust z score of cilia incidence” value in the experiment on mIMCD3 [2] was -0.0211 ± 1.8; with mIMCD3 [3], -7.59 ± 0.69.
Take `CN1CC(=O)N=C1NC(=O)Nc1cccc(Cl)c1` [Fenobam]: the “robust z score of cell number” value is -5.23 ± 5.6 with mIMCD3 [1] (siRNA: siRpgrip1l) and -1.4 ± 1.4 with mIMCD3 [1] (siRNA: siScr). Further, the “robust z score of cilia incidence” value was 1.66 ± 1.1 with mIMCD3 [2] and -7.78 ± 5.5 in the experiment on mIMCD3 [3].
In the same order, the values of `O=C(O)CCC/C=C\C[C@@H]1CO[C@H](C(F)(F)F)O[C@@H]1c1ccccc1O` are -4.76 ± 0.64, -7.41 ± 0.41, -0.527 ± 3.3 and -1.99 ± 0.24.
For `COc1cccc2c1C(=O)c1c(O)c3c(c(O)c1C2=O)C[C@@](O)(C(=O)CO)C[C@@H]3O[C@H]1C[C@H](N)[C@H](O)[C@H](C)O1` [Doxorubicin hydrochloride] the same measures were -41.1 ± 27, -55.1 ± 29, -35.9 ± 17 and -58.6 ± 4.7.
`CC(C)(C=O)Cc1cc(C(C)(C)C)c(O)c(C(C)(C)C)c1`: the “robust z score of cell number” value is 1.81 ± 4.8 in the experiment on mIMCD3 [1] (siRNA: siRpgrip1l) and 8.7 ± 5.6 in the experiment on mIMCD3 [1] (siRNA: siScr). The “robust z score of cilia incidence” value is -0.419 ± 3.2 with mIMCD3 [2] and -134 ± 69 in the experiment on mIMCD3 [3].
With `O=C(O)c1ccc(C=C2SC(=S)N(c3cccc(C(F)(F)F)c3)C2=O)cc1`, the “robust z score of cell number” value with mIMCD3 [1] (siRNA: siRpgrip1l) was -27.2 ± 37; in the experiment on mIMCD3 [1] (siRNA: siScr), -4.29 ± 1.6. For the same molecule, the “robust z score of cilia incidence” value in the experiment with mIMCD3 [2] is -7.99 ± 11; in the experiment on mIMCD3 [3], -13 ± 16.
On to `COc1ccc(C2CNC(=O)C2)cc1OC1CCCC1` (configuration not stated) [Rolipram], for which the “robust z score of cell number” value was -3.36 ± 0.21 with mIMCD3 [1] (siRNA: siRpgrip1l) and 0.718 ± 1.1 in the experiment on mIMCD3 [1] (siRNA: siScr). In addition, the “robust z score of cilia incidence” value in the experiment on mIMCD3 [2] is -0.382 ± 1.8; with mIMCD3 [3], -7.43 ± 0.38.
For `CCc1nn(CCCN2CCN(c3cccc(Cl)c3)CC2)c(=O)n1CCOc1ccccc1` [Nefazodone hydrochloride] the same measures were -17.5 ± 16, -7.66 ± 3.1, -12.2 ± 4.9 and -14.7 ± 5.2.
With `CC(C)[C@H]1c2ccc(F)cc2CC[C@@]1(CCN(C)CCCc1nc2ccccc2[nH]1)OC(=O)C1CC1` [NNC 55-0396 dihydrochloride], the “robust z score of cell number” value is -29.7 ± 15 in the experiment with mIMCD3 [1] (siRNA: siRpgrip1l) and -27.5 ± 4.8 in the experiment with mIMCD3 [1] (siRNA: siScr). Moreover, the “robust z score of cilia incidence” value with mIMCD3 [2] was -48.5 ± 36; in the experiment with mIMCD3 [3], -33 ± 19.
For `CC(C)(C)NC[C@H](O)COc1nsnc1N1CCOCC1` [(S)-Timolol maleate], the figures for the “robust z score of cell number” value in the experiment on mIMCD3 [1] (siRNA: siRpgrip1l) and in the experiment on mIMCD3 [1] (siRNA: siScr) were 1.15 ± 0.58 and 1.06 ± 5.3, respectively. For the same molecule, the “robust z score of cilia incidence” value with mIMCD3 [2] is 1.46 ± 2.3; in the experiment with mIMCD3 [3], -7.04 ± 5.3.
For `N=C(N)NC(=O)c1nc(Cl)c(N)nc1N` [Amiloride hydrochloride] the same measures were -3.25 ± 1.7, -1.04 ± 0.3, 0.645 ± 2 and -5.78 ± 2.1.
In the case of `CCN(CC)CCCCC1CCN(CC(=O)N2c3ccccc3C(=O)Nc3cccnc32)CC1`, the “robust z score of cell number” value with mIMCD3 [1] (siRNA: siRpgrip1l) is -6.9 ± 4; in the experiment with mIMCD3 [1] (siRNA: siScr) it was -0.887 ± 0.42. In addition, the “robust z score of cilia incidence” value was 0.799 ± 2 with mIMCD3 [2] and -12.2 ± 10 in the experiment with mIMCD3 [3].
For `NC(=O)OCC(COC(N)=O)c1ccccc1` [Felbamate] the same measures were 0.26 ± 4.5, -0.764 ± 1.3, -0.404 ± 3.6 and -6.48 ± 1.5.
On to `COc1cc(CNC(=O)CCCC/C=C/C(C)C)ccc1O` [(E)-Capsaicin], for which the results for the “robust z score of cell number” value in the experiment with mIMCD3 [1] (siRNA: siRpgrip1l) and in the experiment with mIMCD3 [1] (siRNA: siScr) were -47.5 ± 42 and -39.9 ± 0.47, respectively. The “robust z score of cilia incidence” value in the experiment on mIMCD3 [2] was -43.2 ± 12; in the experiment with mIMCD3 [3], -28.6 ± 4.4.
For the molecule `COc1ccc2c3c1O[C@H]1C[C@@H](O)C=C[C@@]31CCN(C)C2` [Galanthamine hydrobromide], the “robust z score of cell number” value with mIMCD3 [1] (siRNA: siRpgrip1l) was 0.739 ± 2.9; with mIMCD3 [1] (siRNA: siScr), -4.59 ± 5.4. For the same molecule, the “robust z score of cilia incidence” value with mIMCD3 [2] was 0.434 ± 0.38; in the experiment with mIMCD3 [3], -8.78 ± 2.7.
Regarding `NC(N)=Nc1ccc(Cl)cc1` [4-Chlorophenylguanidine hydrochloride], the “robust z score of cell number” value in the experiment with mIMCD3 [1] (siRNA: siRpgrip1l) was 4.31 ± 4.9; with mIMCD3 [1] (siRNA: siScr) it was -0.0848 ± 0.35. Moreover, the “robust z score of cilia incidence” value was 0.945 ± 1.2 with mIMCD3 [2] and -4.27 ± 5 in the experiment with mIMCD3 [3].
